# In US20100055712A1, “Oligopeptides for treatment of osteoporosis and other bone diseases and methods therefor” (Washington University, priority 2008, published 2010):
# The chains behind the UniProt entries cited, without tags or fusion partners. Residues count along the entry.
# UniProt Q07954, residues 20-4544: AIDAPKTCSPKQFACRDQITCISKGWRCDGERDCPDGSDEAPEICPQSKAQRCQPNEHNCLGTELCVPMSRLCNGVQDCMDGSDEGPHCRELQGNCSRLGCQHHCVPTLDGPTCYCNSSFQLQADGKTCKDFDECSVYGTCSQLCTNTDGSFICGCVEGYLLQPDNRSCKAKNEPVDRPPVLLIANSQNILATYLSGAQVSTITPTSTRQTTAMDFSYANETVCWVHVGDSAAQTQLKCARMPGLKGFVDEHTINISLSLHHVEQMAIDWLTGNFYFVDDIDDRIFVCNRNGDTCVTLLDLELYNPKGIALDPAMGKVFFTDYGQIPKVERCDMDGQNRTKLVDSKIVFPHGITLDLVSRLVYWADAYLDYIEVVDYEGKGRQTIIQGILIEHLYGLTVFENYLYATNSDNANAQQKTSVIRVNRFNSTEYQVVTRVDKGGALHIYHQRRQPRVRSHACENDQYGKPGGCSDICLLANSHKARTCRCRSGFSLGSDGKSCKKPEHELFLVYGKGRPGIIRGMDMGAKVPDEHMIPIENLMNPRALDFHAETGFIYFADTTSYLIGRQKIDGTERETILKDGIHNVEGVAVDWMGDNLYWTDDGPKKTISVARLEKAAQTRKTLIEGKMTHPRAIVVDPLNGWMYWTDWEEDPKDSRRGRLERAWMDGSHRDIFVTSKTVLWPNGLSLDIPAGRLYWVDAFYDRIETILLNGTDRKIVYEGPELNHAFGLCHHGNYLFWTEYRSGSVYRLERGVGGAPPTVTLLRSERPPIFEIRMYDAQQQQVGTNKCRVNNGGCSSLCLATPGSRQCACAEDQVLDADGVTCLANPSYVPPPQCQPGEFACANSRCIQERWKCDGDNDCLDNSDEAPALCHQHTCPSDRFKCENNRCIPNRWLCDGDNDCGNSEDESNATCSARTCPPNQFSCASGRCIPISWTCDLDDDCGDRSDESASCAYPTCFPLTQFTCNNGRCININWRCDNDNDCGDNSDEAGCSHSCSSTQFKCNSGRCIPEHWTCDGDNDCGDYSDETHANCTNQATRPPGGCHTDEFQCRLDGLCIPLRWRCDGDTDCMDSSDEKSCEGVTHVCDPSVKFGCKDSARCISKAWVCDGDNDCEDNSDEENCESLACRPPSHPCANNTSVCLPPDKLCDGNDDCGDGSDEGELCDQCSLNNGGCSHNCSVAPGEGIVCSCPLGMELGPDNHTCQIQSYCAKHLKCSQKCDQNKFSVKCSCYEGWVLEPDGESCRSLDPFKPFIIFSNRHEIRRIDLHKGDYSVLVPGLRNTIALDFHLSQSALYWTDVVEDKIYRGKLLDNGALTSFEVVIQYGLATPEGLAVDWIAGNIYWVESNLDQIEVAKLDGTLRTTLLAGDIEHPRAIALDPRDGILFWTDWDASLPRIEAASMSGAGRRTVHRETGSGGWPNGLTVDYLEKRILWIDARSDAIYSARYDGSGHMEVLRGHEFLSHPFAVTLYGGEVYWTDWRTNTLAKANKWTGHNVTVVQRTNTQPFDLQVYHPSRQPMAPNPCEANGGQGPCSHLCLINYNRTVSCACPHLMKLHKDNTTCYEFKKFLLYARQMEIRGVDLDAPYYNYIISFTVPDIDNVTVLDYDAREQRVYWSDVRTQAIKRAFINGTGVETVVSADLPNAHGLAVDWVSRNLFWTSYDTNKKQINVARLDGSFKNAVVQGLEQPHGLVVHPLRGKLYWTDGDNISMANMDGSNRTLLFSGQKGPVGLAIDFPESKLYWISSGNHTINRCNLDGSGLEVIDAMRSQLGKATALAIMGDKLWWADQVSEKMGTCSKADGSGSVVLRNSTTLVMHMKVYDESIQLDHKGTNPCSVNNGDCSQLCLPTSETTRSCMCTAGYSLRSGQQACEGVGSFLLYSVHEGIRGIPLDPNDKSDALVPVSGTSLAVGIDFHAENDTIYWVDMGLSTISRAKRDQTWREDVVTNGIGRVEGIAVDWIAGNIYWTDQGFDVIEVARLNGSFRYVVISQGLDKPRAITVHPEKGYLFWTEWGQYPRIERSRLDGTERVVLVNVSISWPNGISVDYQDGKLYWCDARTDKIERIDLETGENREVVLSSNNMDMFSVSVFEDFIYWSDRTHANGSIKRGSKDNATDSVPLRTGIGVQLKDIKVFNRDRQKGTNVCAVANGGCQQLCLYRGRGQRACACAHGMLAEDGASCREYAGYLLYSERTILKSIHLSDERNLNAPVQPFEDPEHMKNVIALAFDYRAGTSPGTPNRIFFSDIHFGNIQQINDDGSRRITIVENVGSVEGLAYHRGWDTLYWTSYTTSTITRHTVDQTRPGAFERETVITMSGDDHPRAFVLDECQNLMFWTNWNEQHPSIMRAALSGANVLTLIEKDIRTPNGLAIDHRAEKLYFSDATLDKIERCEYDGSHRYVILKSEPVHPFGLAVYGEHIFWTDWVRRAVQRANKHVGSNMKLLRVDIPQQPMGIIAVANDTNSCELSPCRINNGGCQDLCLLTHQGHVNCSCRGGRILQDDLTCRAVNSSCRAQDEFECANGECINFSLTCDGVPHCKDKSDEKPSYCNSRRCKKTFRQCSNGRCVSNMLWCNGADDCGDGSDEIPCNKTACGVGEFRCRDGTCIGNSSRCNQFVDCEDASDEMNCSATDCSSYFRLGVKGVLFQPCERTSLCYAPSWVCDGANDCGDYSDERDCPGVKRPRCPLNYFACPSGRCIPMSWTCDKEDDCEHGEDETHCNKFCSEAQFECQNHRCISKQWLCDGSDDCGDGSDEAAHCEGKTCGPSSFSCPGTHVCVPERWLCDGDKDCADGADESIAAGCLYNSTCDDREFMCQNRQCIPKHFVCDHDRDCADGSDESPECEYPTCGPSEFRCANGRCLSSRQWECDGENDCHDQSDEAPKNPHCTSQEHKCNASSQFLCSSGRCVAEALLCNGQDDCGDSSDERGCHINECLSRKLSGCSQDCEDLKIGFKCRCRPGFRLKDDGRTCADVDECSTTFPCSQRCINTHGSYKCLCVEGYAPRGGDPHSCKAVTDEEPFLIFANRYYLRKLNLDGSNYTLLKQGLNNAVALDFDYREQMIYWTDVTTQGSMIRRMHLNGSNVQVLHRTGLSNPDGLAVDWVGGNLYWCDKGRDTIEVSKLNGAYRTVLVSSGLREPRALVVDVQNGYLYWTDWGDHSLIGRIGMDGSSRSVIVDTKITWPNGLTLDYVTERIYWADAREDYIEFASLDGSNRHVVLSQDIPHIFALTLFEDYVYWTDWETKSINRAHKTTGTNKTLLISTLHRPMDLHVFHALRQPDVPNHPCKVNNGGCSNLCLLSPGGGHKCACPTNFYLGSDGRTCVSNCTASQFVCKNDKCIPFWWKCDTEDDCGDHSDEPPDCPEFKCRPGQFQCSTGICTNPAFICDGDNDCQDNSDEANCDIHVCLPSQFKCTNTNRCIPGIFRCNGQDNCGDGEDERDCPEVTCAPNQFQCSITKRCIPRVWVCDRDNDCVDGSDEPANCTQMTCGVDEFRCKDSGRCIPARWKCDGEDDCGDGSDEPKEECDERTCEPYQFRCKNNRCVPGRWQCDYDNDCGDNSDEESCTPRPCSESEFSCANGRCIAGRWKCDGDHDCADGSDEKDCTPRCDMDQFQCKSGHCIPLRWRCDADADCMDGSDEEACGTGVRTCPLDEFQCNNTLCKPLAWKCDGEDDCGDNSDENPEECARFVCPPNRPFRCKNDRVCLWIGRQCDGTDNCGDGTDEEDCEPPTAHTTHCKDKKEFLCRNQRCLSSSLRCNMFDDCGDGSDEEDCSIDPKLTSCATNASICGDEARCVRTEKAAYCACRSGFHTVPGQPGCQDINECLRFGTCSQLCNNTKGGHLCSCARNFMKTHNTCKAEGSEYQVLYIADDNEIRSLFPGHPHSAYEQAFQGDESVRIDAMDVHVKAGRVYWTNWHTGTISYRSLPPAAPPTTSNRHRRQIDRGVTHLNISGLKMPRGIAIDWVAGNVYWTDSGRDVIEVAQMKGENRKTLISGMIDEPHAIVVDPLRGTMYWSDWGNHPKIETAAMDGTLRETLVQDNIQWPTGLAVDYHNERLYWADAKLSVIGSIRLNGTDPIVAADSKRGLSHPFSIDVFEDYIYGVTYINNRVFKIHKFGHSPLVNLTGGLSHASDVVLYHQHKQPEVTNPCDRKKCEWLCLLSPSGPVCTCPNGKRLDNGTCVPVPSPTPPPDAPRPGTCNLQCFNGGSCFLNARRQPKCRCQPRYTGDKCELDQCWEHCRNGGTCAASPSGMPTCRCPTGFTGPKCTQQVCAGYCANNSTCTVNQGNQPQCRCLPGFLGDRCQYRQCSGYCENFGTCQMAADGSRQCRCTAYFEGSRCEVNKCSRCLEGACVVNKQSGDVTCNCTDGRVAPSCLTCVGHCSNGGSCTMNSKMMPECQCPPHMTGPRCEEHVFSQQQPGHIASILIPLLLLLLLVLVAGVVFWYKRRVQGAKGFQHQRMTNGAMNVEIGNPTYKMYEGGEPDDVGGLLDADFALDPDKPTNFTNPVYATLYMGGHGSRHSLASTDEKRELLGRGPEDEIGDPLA
# UniProt P30533, residues 35-357: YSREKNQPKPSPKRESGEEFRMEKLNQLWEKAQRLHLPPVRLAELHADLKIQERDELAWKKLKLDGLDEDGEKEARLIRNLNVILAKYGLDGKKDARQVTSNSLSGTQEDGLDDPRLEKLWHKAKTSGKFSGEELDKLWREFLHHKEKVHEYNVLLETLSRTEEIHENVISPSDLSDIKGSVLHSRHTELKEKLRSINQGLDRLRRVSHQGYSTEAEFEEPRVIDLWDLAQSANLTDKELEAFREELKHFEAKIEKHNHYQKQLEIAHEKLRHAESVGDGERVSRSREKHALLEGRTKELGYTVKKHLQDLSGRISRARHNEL
# No constants are given. Whether binding was seen depends on the method and setting. Some results given as binding are weak or reduced against the parent protein; the word gives no strength.
# Target: LRP1, endogenous, on U87 glioblastoma cells (UniProt Q07954)
# Test: cell-associated fluorescence of labeled RAP on U87 cells, with or without LRP1 siRNA
substance,measurement,value
Human recombinant Receptor-Associated Protein (RAP) labeled with Alexa Fluor488 (from UniProt P30533 35-357) (ligand),binding,binds
